PubChem BioAssay AID743121 – NCATS – 2013

- Screen: 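Knock-downs that sensitise breast cancer cells to camptothecin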 (primary screen)
- Cells: MDA-MB-231 cells, a human breast cancer line
- Reagents: single siRNA against human genes, 20 nM siRNA (0.8 pmol per well)
- Timing: 120 h (drug added 48 h after transfection, read 72 h later)
- Challenge: camptothecin 20 nM (about EC30) for 72 h; vehicle 0.1% DMSO in parallel plates
- Read-out: 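CellTiter-Glo ATP signal, scaled to control siRNA as percent viability; sensitisation given as log2 of untreated divided by camptothecin-treated viability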
- Scale: log2 vehicle/camptothecin viability: higher = stronger sensitisation to camptothecin
- Active means: 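Each gene scored by redundant siRNA activity (RSA) over its individual siRNA ratios; a gene is called active at p < 0.001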
Here is one part, drawn at random, of about 26,000 reagents. Over the whole deposit, 167 (0.63%) were called active. 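Calls are per gene from RSA p-values that are not deposited; an individual active-marked siRNA can sensitise only weakly.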 The numbers tell different reagents against one gene apart. Not all columns of the deposit are shown.

Against TCP11L2 #1 the deposit lists log2 vehicle/camptothecin viability -0.104; inactive.
TCP11L2 #2 showed log2 vehicle/camptothecin viability -0.453; inactive.
For TCP11L2 #3, the values are log2 vehicle/camptothecin viability -0.236; inactive.
Depletion of TCP11L2 #4 resulted in: log2 vehicle/camptothecin viability -0.309; inactive.
With knock-down of ITGAE #1, the screen gave log2 vehicle/camptothecin viability 0.191; inactive.
Against ITGAE #2, the entry reads log2 vehicle/camptothecin viability -0.116; inactive.
ITGAE #3 showed log2 vehicle/camptothecin viability 0.107; inactive.
ITGAE #4 gave log2 vehicle/camptothecin viability -0.236; inactive.
ITGAL #1 showed log2 vehicle/camptothecin viability 0.15; inactive.
With knock-down of ITGAL #2, the screen gave log2 vehicle/camptothecin viability -0.482; inactive.
ITGAL #3 gave log2 vehicle/camptothecin viability -0.172; inactive.
Silencing of ITGAL #4 gave: log2 vehicle/camptothecin viability 0.236; inactive.
Depletion of TRIM6 #1 resulted in: log2 vehicle/camptothecin viability -0.698; inactive.
For TRIM6 #2 the deposit lists log2 vehicle/camptothecin viability -0.0275; inactive.
For TRIM6 #3 the deposit lists log2 vehicle/camptothecin viability 0.207; inactive.
Against TRIM6 #4 the deposit lists log2 vehicle/camptothecin viability -0.142; inactive.
BRSK1 #1 showed log2 vehicle/camptothecin viability -0.0989; inactive.
For BRSK1 #2, the entry reads log2 vehicle/camptothecin viability -0.175; inactive.
BRSK1 #3 scored log2 vehicle/camptothecin viability -0.274; inactive.
BRSK1 #4 scored log2 vehicle/camptothecin viability -0.32; inactive.
Depletion of TM2D3 #1 gave: log2 vehicle/camptothecin viability -0.305; inactive.
After knock-down of TM2D3 #2, the record shows log2 vehicle/camptothecin viability -0.141; inactive.
Depletion of TM2D3 #3 resulted in: log2 vehicle/camptothecin viability -0.459; inactive.
TM2D3 #4 gave log2 vehicle/camptothecin viability -0.107; inactive.

Ordered by “log2 vehicle/camptothecin viability” (low to high): some entries from above.
BRSK1 #3: log2 vehicle/camptothecin viability = -0.274; outcome = inactive
BRSK1 #2: log2 vehicle/camptothecin viability = -0.175; outcome = inactive
